Assay results published in patent US20240010998A1, “FLAVONE 4'-O-METHYLTRANSFERASE GENE AND USE FOR SAME” (SUNTORY HOLDINGS LIMITED, priority 2020, published 2024).

Experiment: Detection of embigenin in fringed iris petals and leaves by HPLC pigment analysis
Design: species or system fringed iris (Iris japonica)

COc1ccc(-c2cc(=O)c3c(O)c([C@@H]4O[C@H](CO)[C@@H](O)[C@H](O)[C@H]4O)c(OC)cc3o2)cc1 [Embigenin, 7,4′-dimethoxyisovitexin]
Embigenin (mg content per 1 g dry weight) (fringed iris leaves): 0.0 mg per 1 g dry weight | Embigenin (mg content per 1 g dry weight) (fringed iris petals): 6.6 mg per 1 g dry weight
